Laboratory results as given in PubChem BioAssay AID1508600 (Functional Genomics Laboratory (NCATS/FGL), 2020).
The campaign covered roughly 53,000 sequences. About 3,700 (7%) were called active.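 How the source made its calls: active means gene knockdowns whose robust z-score for IL-1 alpha signal is at least 2 or at most -2, so actives lie on both sides; inactive means the rest.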 This is one part of the list.

Assay: Components of the Cytosolic LPS Sensing Pathway: Gene Identification via Genome-wide siRNA Screen;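 further: robust z of the log signal after scaling to non-targeting control siRNA wells of the plate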
Settings: RAW264.7 macrophages, IL-1a HTRF, actives lie on both sides, screened at 100 nM (by protocol), cells primed 5 h with Pam3CSK4 first
In short: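 Cells (RAW264.7, 1×10^4 per well) were transfected with siRNA at 100 nM and cultured 48h at 37 degrees C. Pam3CSK4 was added for 5 hours; LipidA transfection followed for 24 hour. IL-1a was then measured by HTRF.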

z-score, inactive:
GGAUAUCAACAGAUACAUCTT against Serpina12 -0.493, GGUUAUUAUAAUGAUCUGGTT against Wdr33 0.836, CCUUAUAAGAAAGAUAGACTT against Nhlrc2 -0.591, GGUUCCAACCGAUAAGUAUTT against Fh1 1.1, CCUGGUAACCUGCUAAAAGTT against Gm5124 1.24, GGCUUGUCCACUGAACCUUTT against Nop2 0.0118, GCAAAAUCUAGGGAUAAGATT against Trdv2-2 0.259, GCAGUCUCACCUGAACAGATT against Eppin 0.43, GGCGAUGAAGUCUACGUGATT against C1ql2 0.344, GGAUGUUGCUGUCGAUACATT against Kcnq3 1.82, GUGCCAGUUGUGACAAUAUTT against Gm5128 0.251, CCUAAGUCCAAUCACACCUTT against Olfr1076 0.525, CCCAAACUGAAUUAAGCAGTT against Spata7 -0.515, GGAUUCUUCAUUUCUAGUGTT against C1qtnf6 0.231, GGAGGUGAUCUGUACCGGATT against Nek4 -0.603, GGCCGUUGUAUGAAGAGUATT against Ace2 -0.614, GGAGAUGCUGGACUGCUUUTT against Htr1b 0.195, GGCAACUUUUAACUAACUUTT against Gbp2 -0.626, GGAGAAGGUUCACUCUGAUTT against Traf1 -0.666, GCCGAGUGAAUGAAAGGACTT against Ppp1r32 -0.758, GCUCGACAGCUACAGAGUUTT against Kdm1a -0.0798, GGAUAUUCAGCACUGGGAATT against Rrm2 -0.525, GGCCUUAGAUAGUUACAUATT against Gm4759 -0.173, GGCCUGGAUCAUUGUGGUGTT against 2810025M15Rik 1.35, CCAAUUGCUAAUCCUUUGUTT against Pin1 1.52, GGUAUCAUGCUGAGAGAGATT against B4galt6 -0.461, GGAGUGGAGUUCAACAUUGTT against Atox1 0.0646, GUUUGCUGCUAUCUCUUUUTT against Atp6v0e 1.6, GGCAUUUUCCACAUGCGGCTT against Olfr139 -0.496, GGUGCAAGAACACUAUGAUTT against U2af1l4 0.0528, GGUUUUAGUAUAAAGGCAGTT against Arl15 -1.55, GGACCAUCCCUGUUUUAUATT against Ifrd2 -0.0712, GGAGAUUAUGAAAGAUUUGTT against Pank3 0.197, UGGCCUUUGCCCUACAUUUTT against Orai3 0.266, GGACAUCAGUUGUCCUAGCTT against Ano6 -0.285, GGAGUCCUCUAUGUGCAGATT against Pla2g4b -0.68, GCAUGCUACGAUCUGGACUTT against AI661453 0.714, GGAGCUCCUACCAAGACUUTT against Klhl38 1.07, GCACGGAUGCAGUGAAUAGTT against Akirin2 -0.108, GCUUUGGAUAGUAGACAGCTT against BC055324 0.199, GGACAUCACCUGUCAAAGUTT against Zar1 0.0246, GCCUGGUUUAACAAUCCUCTT against Zmat4 -1.4, GGUUGUGACUUCACGUUCCTT against Sult1a1 -0.477, CCUACUCCUUCUUGAUUUATT against Lpl 1.31, GCACUUCAACCCUAACAUUTT against Acp2 -0.0239, GCCAUGUUCAAUAUUAGGATT against Rps3a1 -0.311, GGGUGAGGAGACAGAAUUCTT against Dnajc5 1.19, GCAGCUAAGGUAUCUUCAUTT against 9930021J03Rik 1.43, GGUCUCCUACUUCCACUGCTT against Sppl3 0.33, GGUUUUUGCCAGUAAUAACTT against B4galt4 0.0609, GGUUUGAUAUCCAGGUGCATT against Sppl2b 0.373, GGUGUUUUGUGAAUUGAAATT against Leprotl1 -1.05, GCUACUCAGUCAUUGAGCCTT against Tatdn2 -1.85, GGAUUAUUCAAGGACUUUGTT against Bmf 0.48, GGCAGUUAACACUUAAUGATT against Foxp2 0.609, GGCACCAGUCCUGUUAGAUTT against A330008L17Rik -0.375, GCCUAUACACUUGGUAUUGTT against Ptges3 -0.166, GCAACAUUGAUUCUAGGAUTT against Olfr1391 -1.48, GGACUAAGCCUGAAUGUGUTT against Zdhhc5 -1.46, GGUGCCCUACAGUGAGAUATT against Rpl13 1.91, CCUGAAAUCCUGUAGCUACTT against Pgap3 1.35, GGAAAUCGAUAGUUUCUUCTT against Olfr1302 -0.0687, GCCUUGACCUGAUUUCUACTT against Tas2r131 -0.525

z-score, active:
CCAUGGACCAAAUGAAGUUTT against Cd44 2.59, GGCGGUCAAGUGAGGUUCUTT against Hhex 3.62, GCUGGAAGCAUUUGUUUUUTT against Uap1 2.19, GGUGCAUGUCUUCAUCCACTT against Rnase12 3.04, CAAUCCUCAACGAUUACAUTT against Ncor1 2.05
